Test results as given in the supplement of paper PMC10849652.
The list shows a part of the results.

Amino acid sequences for entries named in this document (tags omitted). A change or cut given only in a name is not applied to a line headed by its entry.
UniProt Q14683: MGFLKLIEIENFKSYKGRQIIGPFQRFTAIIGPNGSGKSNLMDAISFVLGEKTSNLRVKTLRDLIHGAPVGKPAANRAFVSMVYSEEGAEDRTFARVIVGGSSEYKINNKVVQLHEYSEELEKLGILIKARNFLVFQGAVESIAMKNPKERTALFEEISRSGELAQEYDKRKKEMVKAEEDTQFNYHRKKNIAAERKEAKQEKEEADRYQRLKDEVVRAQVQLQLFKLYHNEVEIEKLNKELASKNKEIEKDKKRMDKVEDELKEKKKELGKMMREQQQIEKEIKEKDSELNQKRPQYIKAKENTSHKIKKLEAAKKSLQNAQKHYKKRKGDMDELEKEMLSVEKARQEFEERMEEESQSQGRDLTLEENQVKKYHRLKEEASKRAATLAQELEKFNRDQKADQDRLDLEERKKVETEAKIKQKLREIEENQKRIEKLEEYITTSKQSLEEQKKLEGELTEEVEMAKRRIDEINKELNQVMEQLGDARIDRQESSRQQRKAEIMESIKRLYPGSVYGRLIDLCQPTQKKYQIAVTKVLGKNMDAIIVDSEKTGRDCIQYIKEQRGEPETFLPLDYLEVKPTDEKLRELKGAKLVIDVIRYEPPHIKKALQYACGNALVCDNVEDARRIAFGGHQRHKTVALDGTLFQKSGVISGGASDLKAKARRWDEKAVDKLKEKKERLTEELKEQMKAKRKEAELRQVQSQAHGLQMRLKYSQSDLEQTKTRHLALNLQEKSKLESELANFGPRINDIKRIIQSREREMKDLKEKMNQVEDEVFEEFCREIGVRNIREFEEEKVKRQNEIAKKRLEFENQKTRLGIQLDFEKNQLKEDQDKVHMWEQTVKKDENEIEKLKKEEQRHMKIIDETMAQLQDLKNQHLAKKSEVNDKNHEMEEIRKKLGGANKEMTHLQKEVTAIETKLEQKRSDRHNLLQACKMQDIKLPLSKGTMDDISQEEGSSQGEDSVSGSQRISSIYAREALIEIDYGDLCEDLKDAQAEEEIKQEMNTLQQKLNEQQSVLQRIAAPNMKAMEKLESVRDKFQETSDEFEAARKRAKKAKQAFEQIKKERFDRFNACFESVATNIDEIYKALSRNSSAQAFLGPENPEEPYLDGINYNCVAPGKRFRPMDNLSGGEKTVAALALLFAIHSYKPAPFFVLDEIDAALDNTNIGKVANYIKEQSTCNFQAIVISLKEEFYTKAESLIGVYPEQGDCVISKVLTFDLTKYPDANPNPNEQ
UniProt Q96R06: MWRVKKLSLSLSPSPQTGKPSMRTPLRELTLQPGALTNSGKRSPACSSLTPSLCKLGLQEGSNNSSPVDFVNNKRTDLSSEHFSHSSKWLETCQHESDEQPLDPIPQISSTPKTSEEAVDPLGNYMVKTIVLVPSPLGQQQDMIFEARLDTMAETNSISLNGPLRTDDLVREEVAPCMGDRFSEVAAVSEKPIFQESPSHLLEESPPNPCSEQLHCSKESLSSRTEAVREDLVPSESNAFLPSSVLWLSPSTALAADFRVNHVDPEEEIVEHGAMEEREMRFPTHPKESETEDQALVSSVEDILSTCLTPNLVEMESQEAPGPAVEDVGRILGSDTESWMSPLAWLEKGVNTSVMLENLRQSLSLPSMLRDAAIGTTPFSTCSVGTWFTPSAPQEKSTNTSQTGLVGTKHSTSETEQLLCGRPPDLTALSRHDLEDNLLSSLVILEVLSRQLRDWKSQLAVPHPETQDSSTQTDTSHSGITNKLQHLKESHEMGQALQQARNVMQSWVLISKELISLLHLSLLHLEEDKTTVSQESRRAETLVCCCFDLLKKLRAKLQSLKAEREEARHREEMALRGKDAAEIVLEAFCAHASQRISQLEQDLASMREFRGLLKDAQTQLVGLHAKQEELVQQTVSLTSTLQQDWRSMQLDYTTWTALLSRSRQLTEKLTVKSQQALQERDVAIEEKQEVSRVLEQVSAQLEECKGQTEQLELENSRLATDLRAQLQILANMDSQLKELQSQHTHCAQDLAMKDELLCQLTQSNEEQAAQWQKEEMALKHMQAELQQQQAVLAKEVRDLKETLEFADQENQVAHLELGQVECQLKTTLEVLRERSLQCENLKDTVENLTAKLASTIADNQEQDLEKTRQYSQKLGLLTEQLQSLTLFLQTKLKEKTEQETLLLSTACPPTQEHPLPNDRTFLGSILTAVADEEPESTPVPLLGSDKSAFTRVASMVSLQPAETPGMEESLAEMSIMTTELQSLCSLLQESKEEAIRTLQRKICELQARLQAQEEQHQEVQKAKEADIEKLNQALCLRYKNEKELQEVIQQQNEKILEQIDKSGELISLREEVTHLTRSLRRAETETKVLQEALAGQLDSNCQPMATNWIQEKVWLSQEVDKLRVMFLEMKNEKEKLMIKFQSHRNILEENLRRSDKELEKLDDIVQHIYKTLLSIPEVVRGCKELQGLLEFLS
UniProt O75643, whole entry, looked up: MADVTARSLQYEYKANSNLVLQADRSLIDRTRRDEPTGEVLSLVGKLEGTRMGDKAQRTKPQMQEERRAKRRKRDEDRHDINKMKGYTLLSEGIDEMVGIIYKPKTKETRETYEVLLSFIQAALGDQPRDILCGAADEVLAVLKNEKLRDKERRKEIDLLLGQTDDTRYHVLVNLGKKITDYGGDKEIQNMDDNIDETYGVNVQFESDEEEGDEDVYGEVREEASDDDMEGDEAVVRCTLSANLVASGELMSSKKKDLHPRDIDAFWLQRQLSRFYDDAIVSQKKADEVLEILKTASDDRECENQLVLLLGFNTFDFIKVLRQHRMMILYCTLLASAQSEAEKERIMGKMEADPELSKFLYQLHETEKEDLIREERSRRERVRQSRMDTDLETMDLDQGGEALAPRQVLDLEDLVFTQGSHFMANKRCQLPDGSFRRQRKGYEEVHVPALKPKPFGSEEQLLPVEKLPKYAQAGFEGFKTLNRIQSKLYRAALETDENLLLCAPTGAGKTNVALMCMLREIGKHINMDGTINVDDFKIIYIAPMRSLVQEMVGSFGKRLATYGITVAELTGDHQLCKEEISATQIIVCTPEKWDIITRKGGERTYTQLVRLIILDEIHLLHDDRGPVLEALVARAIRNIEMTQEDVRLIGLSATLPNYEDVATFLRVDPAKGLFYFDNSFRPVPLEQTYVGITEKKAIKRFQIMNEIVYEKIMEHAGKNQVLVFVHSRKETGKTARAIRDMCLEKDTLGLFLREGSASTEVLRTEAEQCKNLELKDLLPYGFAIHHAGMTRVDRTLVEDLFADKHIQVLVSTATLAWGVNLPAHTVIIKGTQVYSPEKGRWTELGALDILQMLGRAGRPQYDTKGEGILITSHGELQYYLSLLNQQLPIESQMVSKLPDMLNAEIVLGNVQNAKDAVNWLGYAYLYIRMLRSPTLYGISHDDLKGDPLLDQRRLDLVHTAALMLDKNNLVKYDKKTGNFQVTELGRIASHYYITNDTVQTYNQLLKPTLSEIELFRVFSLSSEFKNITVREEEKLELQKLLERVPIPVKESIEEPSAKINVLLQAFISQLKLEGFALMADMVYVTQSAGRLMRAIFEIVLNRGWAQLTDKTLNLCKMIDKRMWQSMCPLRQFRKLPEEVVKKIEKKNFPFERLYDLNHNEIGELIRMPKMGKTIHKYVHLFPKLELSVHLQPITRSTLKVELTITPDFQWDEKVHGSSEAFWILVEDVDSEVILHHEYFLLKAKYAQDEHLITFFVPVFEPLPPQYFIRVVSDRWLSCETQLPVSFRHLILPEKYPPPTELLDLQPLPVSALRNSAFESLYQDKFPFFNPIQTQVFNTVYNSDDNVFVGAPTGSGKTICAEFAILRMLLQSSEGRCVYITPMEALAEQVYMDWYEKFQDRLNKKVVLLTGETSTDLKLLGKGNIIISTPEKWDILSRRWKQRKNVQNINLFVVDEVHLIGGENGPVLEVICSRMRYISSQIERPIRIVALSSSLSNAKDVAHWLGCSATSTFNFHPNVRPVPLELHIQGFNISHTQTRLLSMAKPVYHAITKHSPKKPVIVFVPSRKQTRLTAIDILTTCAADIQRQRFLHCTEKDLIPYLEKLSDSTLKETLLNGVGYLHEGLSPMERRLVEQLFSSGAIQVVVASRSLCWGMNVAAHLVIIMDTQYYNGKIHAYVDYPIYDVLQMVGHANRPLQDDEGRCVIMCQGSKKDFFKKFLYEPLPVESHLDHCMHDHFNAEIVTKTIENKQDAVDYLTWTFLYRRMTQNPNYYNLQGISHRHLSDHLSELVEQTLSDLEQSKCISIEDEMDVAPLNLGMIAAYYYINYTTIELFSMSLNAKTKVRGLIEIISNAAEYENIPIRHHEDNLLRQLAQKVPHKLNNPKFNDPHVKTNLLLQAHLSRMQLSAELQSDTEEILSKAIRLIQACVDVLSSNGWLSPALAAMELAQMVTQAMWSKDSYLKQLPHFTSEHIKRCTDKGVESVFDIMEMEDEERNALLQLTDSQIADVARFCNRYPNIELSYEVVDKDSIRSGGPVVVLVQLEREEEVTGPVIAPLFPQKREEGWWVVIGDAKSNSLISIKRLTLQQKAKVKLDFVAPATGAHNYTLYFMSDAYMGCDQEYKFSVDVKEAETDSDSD
UniProt P62308, whole entry, looked up: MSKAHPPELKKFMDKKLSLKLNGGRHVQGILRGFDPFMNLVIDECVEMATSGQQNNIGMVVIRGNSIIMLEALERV
UniProt P09012, whole entry, looked up: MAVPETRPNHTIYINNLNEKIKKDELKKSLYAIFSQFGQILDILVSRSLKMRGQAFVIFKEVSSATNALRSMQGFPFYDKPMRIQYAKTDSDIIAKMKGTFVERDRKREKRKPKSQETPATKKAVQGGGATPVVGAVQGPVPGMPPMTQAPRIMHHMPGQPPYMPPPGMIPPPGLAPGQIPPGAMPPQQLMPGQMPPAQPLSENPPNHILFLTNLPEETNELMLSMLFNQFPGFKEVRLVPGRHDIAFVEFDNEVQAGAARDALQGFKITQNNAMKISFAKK
UniProt Q8NDV3: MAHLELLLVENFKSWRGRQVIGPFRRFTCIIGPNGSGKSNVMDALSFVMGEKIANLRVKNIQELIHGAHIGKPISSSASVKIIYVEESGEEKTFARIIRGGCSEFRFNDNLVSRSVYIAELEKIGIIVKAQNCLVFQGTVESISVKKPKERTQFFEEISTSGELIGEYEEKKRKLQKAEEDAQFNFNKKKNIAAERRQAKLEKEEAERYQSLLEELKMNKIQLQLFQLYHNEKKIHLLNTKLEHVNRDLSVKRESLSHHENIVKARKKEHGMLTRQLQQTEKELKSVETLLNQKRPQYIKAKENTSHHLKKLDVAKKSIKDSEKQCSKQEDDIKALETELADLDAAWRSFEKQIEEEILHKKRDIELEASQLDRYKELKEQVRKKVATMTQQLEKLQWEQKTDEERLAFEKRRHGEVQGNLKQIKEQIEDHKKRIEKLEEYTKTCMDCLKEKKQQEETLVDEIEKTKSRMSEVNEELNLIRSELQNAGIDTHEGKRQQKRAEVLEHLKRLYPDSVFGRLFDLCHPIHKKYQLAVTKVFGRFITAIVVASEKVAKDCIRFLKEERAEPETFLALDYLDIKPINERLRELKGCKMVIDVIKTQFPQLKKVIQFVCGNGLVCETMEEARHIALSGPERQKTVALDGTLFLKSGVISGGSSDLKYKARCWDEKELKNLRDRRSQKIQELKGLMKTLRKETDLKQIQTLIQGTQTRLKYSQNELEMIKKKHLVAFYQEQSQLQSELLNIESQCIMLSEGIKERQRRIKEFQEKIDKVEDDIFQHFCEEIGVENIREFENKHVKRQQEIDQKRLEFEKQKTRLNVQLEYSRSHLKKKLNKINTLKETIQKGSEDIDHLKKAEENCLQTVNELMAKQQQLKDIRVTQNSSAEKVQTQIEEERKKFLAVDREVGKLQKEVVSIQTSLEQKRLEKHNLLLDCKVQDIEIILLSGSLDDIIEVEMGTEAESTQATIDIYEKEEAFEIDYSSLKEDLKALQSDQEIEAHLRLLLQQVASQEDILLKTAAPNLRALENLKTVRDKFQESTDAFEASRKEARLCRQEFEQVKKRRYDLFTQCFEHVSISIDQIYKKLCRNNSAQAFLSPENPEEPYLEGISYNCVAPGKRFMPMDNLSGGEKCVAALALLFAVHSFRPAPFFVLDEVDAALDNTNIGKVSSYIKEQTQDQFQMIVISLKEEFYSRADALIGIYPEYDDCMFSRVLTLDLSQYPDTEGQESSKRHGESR
UniProt Q15599: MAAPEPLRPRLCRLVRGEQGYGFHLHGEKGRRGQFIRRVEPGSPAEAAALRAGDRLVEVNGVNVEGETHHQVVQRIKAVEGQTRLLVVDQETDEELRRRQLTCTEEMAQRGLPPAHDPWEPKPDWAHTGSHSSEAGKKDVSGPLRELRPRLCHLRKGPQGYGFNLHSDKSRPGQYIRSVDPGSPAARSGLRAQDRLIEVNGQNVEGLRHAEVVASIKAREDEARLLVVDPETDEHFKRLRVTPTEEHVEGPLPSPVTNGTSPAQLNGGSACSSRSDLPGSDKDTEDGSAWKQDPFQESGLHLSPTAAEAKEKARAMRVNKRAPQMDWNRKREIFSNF
UniProt P62304, whole entry, looked up: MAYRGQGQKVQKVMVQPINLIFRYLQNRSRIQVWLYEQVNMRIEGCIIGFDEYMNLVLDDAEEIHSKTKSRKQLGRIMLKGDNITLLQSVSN

compound: O=C(CCCCCCNC(=O)c1cnc(N(c2ccccc2)c2ccccc2Cl)nc1)NO [citarinostat]; experiment: log2 fold change, soluble protein after heating vs DMSO (PISA); higher = thermal stabilisation; K562 cells, 10 uM, 30 min; active = over 0.2 and 3.5 SD of the protein, either way, in both replicates (recomputed)
How it was run: (§1)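 For each measurement, 10 μM compound was applied for 30 min to K562 cells at 2×10^6 cells/mL. Aliquots were heated for 3 min across 48°C-58°C, pooled, and extracted in PBS with 0.5% NP-40 at 4°C; the supernatant after 21,000xg for 90 min was soluble protein. This was quantified by TMTpro 16plex LC-MS/MS with channel sums equalised, and thermal stability was reported relative to control samples from duplicates, on a log2 fold-change scale.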

log2 fold change, inactive:
SMC1A (UniProt Q14683) 0.06
SPAG5 (UniProt Q96R06) 0.022
SNRNP200 (UniProt O75643) -0.025
SLMAP (UniProt Q14BN4) -0.009
SNRPG (UniProt P62308) -0.062
SNAP29 (UniProt O95721) 0.025
SNRPA (UniProt P09012) -0.062
SMC6 isoform 2 (UniProt Q96SB8) -0.014
SMC1B isoform 3 (UniProt Q8NDV3) 0.026
SMIM26, A0A096LP01 0.126
SMARCA1 (UniProt P28370) 0.036
SLC9A3R2 (UniProt Q15599) -0.069
SNRPC (UniProt P09234) 0.021
SNRPE (UniProt P62304) 0.009
SNAPIN (UniProt O95295) 0.026
SMYD5 (UniProt Q6GMV2) 0.044

compound: O=C(O)c1ccc2c(c1)nc(Nc1cccc(Cl)c1)c1ccncc12 [silmitasertib]; experiment: as above
How it was run: as §1

log2 fold change, inactive:
SMARCC2 (UniProt Q8TAQ2) 0.026
SNF8 (UniProt Q96H20) 0.016
SNCA (UniProt P37840) -0.023
SMS (UniProt P52788) 0.004
SMARCC1 (UniProt Q92922) 0.14
SLC9A1 (UniProt P19634) 0.095
SMIM12 (UniProt Q96EX1) -0.149
SMC2 (UniProt O95347) 0.097
SNU13, A0A3B3IUA2 0.01
SMU1 (UniProt Q2TAY7) 0.049
SOCS2 (UniProt O14508) 0.035
SND1 (UniProt Q7KZF4) 0.27
SNRPD2 (UniProt P62316) 0.053
SNAP23 (UniProt O00161) -0.007
SNRPF (UniProt P62306) 0.191
SPA17 (UniProt Q15506) -0.009
SNRNP70 (UniProt P08621) 0.154
SLCO4A1 (UniProt Q96BD0) 0.115
SMC4 (UniProt Q9NTJ3) 0.082
SNRPA1 (UniProt P09661) 0.022
SMN1 (UniProt Q16637) 0.234
SMIM8 (UniProt Q96KF7) 0.036
SNRPC (UniProt Q5TAL2) -0.039
SMC3 (UniProt Q9UQE7) -0.012
SMC1A (UniProt Q14683) -0.013
SPAG5 (UniProt Q96R06) 0.171
SNRNP200 (UniProt O75643) 0.081
SLMAP (UniProt Q14BN4) 0.066
SNRPG (UniProt P62308) 0.072
SNAP29 (UniProt O95721) -0.027
SNRPA (UniProt P09012) 0.077
SMC6 isoform 2 (UniProt Q96SB8) 0.094
SMC1B isoform 3 (UniProt Q8NDV3) 0.136
SMIM26, A0A096LP01 0.032
SMARCA1 (UniProt P28370) 0.027
SLC9A3R2 (UniProt Q15599) -0.085
SNRPC (UniProt P09234) 0.041
SNRPE (UniProt P62304) 0.036
SNAPIN (UniProt O95295) -0.023
SMYD5 (UniProt Q6GMV2) -0.014

compound: O=C1NC(=O)C(c2cnc3ccccn23)=C1c1cn2c3c(cc(F)cc13)CN(C(=O)N1CCCCC1)CC2; experiment: as above
How it was run: as §1

log2 fold change, inactive:
SMARCC2 (UniProt Q8TAQ2) -0.065
SNF8 (UniProt Q96H20) 0.015
SNCA (UniProt P37840) -0.022
SMS (UniProt P52788) -0.043
SMARCC1 (UniProt Q92922) -0.128
SLC9A1 (UniProt P19634) -0.11
SMIM12 (UniProt Q96EX1) -0.113
SMC2 (UniProt O95347) 0.017
SNU13, A0A3B3IUA2 -0.055
SMU1 (UniProt Q2TAY7) 0.01
SOCS2 (UniProt O14508) -0.055
SND1 (UniProt Q7KZF4) 0.456
SNRPD2 (UniProt P62316) 0.056
SNAP23 (UniProt O00161) 0.019
SNRPF (UniProt P62306) 0.011
SPA17 (UniProt Q15506) -0.034
SNRNP70 (UniProt P08621) 0.154
SLCO4A1 (UniProt Q96BD0) -0.007
SMC4 (UniProt Q9NTJ3) -0.007
SNRPA1 (UniProt P09661) 0.105
SMN1 (UniProt Q16637) 0.261
SMIM8 (UniProt Q96KF7) -0.048
SNRPC (UniProt Q5TAL2) -0.098
SMC3 (UniProt Q9UQE7) -0.011
SMC1A (UniProt Q14683) -0.017
SPAG5 (UniProt Q96R06) 0.172
SNRNP200 (UniProt O75643) 0.041
SLMAP (UniProt Q14BN4) 0.054
SNRPG (UniProt P62308) 0.082
SNAP29 (UniProt O95721) 0.025
SNRPA (UniProt P09012) 0.18
SMC6 isoform 2 (UniProt Q96SB8) 0.044
SMC1B isoform 3 (UniProt Q8NDV3) -0.051
SMIM26, A0A096LP01 0.017
SMARCA1 (UniProt P28370) 0.007
SLC9A3R2 (UniProt Q15599) 0.035
SNRPC (UniProt P09234) 0.014
SNRPE (UniProt P62304) 0.083
SNAPIN (UniProt O95295) -0.022
SMYD5 (UniProt Q6GMV2) -0.097
